Data as given in patent publication US20090081183A1, “HIV Transcription Repressor Complex and Compositions and Methods Based Thereon” (priority 1997, published 2009).
Results are given in words; binding and its absence hold for the method and conditions named. In cells and extracts the contact can be indirect. Some entries that bind do so weakly or less than the wild type.

The chains behind the UniProt entries cited, without tags or fusion partners. Where a name states a change or a piece, a line headed by the entry shows the natural chain unless it says otherwise.
UniProt P25490: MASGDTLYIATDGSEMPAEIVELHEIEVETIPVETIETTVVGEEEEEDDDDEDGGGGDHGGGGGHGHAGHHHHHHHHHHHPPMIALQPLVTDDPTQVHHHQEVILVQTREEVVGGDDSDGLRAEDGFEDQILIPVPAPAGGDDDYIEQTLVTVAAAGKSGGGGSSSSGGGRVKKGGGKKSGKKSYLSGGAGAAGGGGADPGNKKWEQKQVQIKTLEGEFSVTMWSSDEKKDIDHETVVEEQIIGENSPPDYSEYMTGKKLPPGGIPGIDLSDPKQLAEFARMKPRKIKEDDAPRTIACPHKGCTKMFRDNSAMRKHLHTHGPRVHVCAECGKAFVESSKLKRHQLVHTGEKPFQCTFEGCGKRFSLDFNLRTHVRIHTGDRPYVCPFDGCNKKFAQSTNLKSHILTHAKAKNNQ
UniProt Q13547: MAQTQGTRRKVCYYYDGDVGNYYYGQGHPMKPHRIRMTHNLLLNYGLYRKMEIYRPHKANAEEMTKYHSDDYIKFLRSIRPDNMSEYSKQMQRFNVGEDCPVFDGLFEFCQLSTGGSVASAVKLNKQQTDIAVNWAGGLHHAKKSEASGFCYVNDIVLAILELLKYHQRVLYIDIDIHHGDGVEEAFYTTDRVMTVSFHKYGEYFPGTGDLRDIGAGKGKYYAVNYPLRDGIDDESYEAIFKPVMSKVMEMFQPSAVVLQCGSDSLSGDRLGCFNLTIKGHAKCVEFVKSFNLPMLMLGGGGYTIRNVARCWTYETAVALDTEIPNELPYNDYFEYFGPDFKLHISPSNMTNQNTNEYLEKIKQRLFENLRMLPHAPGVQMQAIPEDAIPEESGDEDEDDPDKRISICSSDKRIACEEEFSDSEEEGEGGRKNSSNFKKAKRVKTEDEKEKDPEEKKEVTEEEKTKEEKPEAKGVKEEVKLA

What was measured:
[1] = target: YY1-LSF complex purified from CEM cell nuclear extract (RCS-binding repressor complex) (human) (UniProt P25490); assay: copurification through phosphocellulose, DEAE-cellulose and RCS DNA-affinity chromatography; Western blot and deacetylase activity
[2] = target: T1, LSF, wild type, transcribed and translated in vitro in rabbit reticulocyte lysate, 35S-methionine labeled (human) (UniProt Q12800); assay: GST pull-down of 35S-labeled LSF
T1 sequence (chain, 35S-methionine label): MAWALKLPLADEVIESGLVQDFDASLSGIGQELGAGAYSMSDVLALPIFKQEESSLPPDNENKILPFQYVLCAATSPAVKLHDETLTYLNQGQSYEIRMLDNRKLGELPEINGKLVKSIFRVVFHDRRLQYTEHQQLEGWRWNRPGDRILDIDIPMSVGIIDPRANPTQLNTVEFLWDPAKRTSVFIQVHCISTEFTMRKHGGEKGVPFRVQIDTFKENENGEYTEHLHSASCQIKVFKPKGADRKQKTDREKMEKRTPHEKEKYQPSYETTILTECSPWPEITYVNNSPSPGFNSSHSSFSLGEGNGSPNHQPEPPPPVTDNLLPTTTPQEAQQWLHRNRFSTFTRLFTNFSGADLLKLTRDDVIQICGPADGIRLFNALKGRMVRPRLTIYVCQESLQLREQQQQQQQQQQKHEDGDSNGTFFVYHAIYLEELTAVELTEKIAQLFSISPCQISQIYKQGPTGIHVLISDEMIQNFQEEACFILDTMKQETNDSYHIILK

[3] = target: T1, LSF, wild type, transcribed and translated in vitro in rabbit reticulocyte lysate, 35S-methionine labeled (human); assay: GST pull-down of 35S-labeled LSF, autoradiography
[4] = target: T1, LSF, wild type, transcribed and translated in vitro in rabbit reticulocyte lysate, 35S-methionine labeled (human); assay: GST pull-down of 35S-labeled LSF, normalized for protein concentration

Row | binding [1] | binding [2] | binding [3] | binding [4] | Substance
1 | binds | – | – | – | HDAC1 (histone deacetylase 1), endogenous cellular protein (from UniProt Q13547 1-482) (enzyme)
2 | – | binds | binds | binds | YZnFs (GST fused to all four YY1 zinc fingers, without the YY1 amino-terminal region) (from UniProt P25490 295-414)
3 | – | binds | binds | – | GST-YY1 (full-length wild type YY1 fused to glutathione-S-transferase) (from UniProt P25490 1-414)
